These are yes or no findings as the source states them, for the method shown. In cells and extracts the contact can be indirect. These calls come from enrichment with a bait or labelling near it, and not all partners need be listed. Tags and fused reporters may be left off the sequences shown.

The test has as its target T1, GST-Irga6 (mouse) (UniProt Q9QZ85).
T1 sequence: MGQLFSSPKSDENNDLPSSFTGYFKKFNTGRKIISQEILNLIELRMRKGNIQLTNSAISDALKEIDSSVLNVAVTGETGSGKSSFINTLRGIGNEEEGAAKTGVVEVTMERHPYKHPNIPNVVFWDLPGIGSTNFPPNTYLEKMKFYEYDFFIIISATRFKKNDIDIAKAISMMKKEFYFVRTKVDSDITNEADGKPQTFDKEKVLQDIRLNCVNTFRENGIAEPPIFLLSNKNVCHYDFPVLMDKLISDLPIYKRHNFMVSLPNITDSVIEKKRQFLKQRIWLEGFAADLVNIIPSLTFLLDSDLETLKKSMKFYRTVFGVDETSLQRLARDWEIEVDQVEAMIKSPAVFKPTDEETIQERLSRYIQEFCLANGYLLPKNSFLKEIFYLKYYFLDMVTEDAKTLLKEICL
In words: affinity purification with mass spectrometry; GST-Irga6 on Glutathione Sepharose 4B beads; detergent lysate of IFNγ-induced L929 fibroblasts infected 2 h with T. gondii RH-YFP; o/n at 4°C; differential silver-stained bands analysed by MS; GST-loaded beads in parallel; only the target purified.
Consider ROP5A of T. gondii strain RH-YFP, for which the binding entry is “binds”.

For the substance ROP5B of T. gondii strain RH-YFP, the binding result is reported as “binds”.

On to ROP5C of T. gondii strain RH-YFP, for which the binding entry was “binds”.

The record behind these values is publication PMC3393671.
